Test results published in patent US9132164B2, “Pharmaceutical compositions comprising angiotensin-(1-9), derivatives thereof, or a vector expressing ACE2, useful for treating cardiovascular, pulmonary, cerebral, and/or renal remodeling” (PONTIFICIA UNIVERSIDAD CATOLICA DE CHILE, priority 2008, dated 2015).
For at least one compound, name, drawing or mass did not settle the structure.

Experiments:
[1] = system: sham and infarcted rats (left coronary artery ligation); experiment: Effect of candesartan and enalapril on blood pressure, morphometry and function of the left ventricle after coronary artery ligation; assay type: in vivo, Sprague Dawley rats; conditions: week 8
Experimental: Male Sprague Dawley rats were kept in cages with access to water and food ad libitum. This procedure was performed in accordance with the Guide for the Care and Use of Laboratory Animals, published by “U.S. National Institutes of Health” (NIH publication No 85-23, revised 1985) and was approved by our Institutional Ethics Committee. […] Infarct size in survivors was determined by planimetry of endocardial circumference of left ventricle on histological sections. […]
Systolic blood pressure (SBP) was determined by using the “tail-cuff” method by investigators who were blind to the treatment group. Left ventricle function was determined by transthoracic bidimensional echocardiography using a Sonos 5000 equipped with a 5 to 12 MHz sectorial electronic ultraband S12 Philips transducer. The following echocardiographic parameters were determined: left ventricular end-systolic diameter (LVESD), left ventricular end diastolic diameter (LVEDD), left ventricular fractional shortening (LVFS), left ventricular anterior wall thickness (LVAWT), and left ventricular posterior wall thickness (LLVWT). […]

[2] = Circulating angiotensin levels post coronary artery ligation (HPLC and radioimmunoassay); assay type: in vivo, Sprague Dawley rats
Experimental: Male Sprague Dawley rats were kept in cages with access to water and food ad libitum. This procedure was performed in accordance with the Guide for the Care and Use of Laboratory Animals, published by “U.S. National Institutes of Health” (NIH publication No 85-23, revised 1985) and was approved by our Institutional Ethics Committee. For studies with enalapril and candesartan, 71 adult normotensive rats were randomly separated into two groups and underwent a sham surgery (surgery without ligation of the coronary artery, n=34) or myocardial infarction following a surgery with ligation of the left coronary artery (infarction, n=37) as previously described (Ocaranza et al, Hypertension 48:572-8, 2006). Briefly, the left coronary artery was ligated between the pulmonary artery exit and left auricle with a 7-0 silk suture under aseptic conditions in rats anaesthetized with ketamine-HCl/xilazine (35/7 mg/kg intraperitoneal, respectively). Sham rats underwent the same surgical procedure except that the suture was not passed around the left coronary artery. Myocardial infarction was confirmed by electrocardiography 24 h following surgery. Mortality rate from myocardial infarction following ligation of the left coronary artery was 25% within 48 h after occlusion. Infarct size in survivors was determined by planimetry of endocardial circumference of left ventricle on histological sections. Sham and infracted rats were randomized to receive the carrier, candesartan (10 mg/kg of body weight daily) or enalapril (10 mg/kg of body weight daily) by gavage for 8 weeks, beginning 48 h after infarction.
Plasma angiotensin and bradykinin levels were determined as described by (Ocaranza et al, Hypertension 48:572-8, 2006; Ocaranza et al, Life Sci. 78:1535-42, 2005; Campbell et al, J. Mol. Cell. Cardiol. 27:1545-60, 1995). Briefly, rats were anesthetized with a combination of ketamin (125 mg/kg) and xilazin (12.5 mg/kg) administered via intraperitoneal injection. […] Plasmas were stored at −80° C. until their extraction using C18 Sep-Pak cartridges, and peptides were acetylated. Acetylated angiotensin II, angiotensin I, angiotensin-(1-7), angiotensin-(1-9), bradykinin-(1-7) and bradykinin-(1-9) were separated by high performance liquid chromatography (HPLC) and were detected by radioimmunoassay.
Plasma angiotensin and bradykinin (BK) levels were determined by high performance liquid chromatography and radioimmunoassay as described in example No 2. Angiotensin-I levels are lower in the infarcted rats group, associated with higher levels of angiotensin-II. However, plasma angiotensin-(1-7) and angiotensin-(1,9) levels were similar in sham rats and infarcted rats. […]

[3] = both experimental groups (sham and infarcted rats)

Q: What does the source list for `CCOc1nc2cccc(C(=O)O)c2n1Cc1ccc(-c2ccccc2-c2nnn[nH]2)cc1` [candesartan]?
A: left ventricle dilatation [1]: significantly prevented; -(1-7)/angiotensin-II ratio [2, 3]: increase; angiotensin-(1-9) circulating levels [2, 3]: increase; angiotensin-(1-9)/angiotensin-I ratio [2, 3]: increase; Plasma angiotensin-(1-7) levels ([2]; both in infarcted rats and sham rats): increased
